Data reported in publication PMC5660723, “Histone Deacetylase Inhibitors Are Protective in Acute but Not in Chronic Models of Ototoxicity” (Frontiers in Cellular Neuroscience, 2017).

tested on: outer hair cells (OHCs) of p3 murine organ of Corti explants; test: Protection against gentamicin-induced OHC loss in murine organ of Corti explants; assay type: cell-based, CBA/J mice
Description: The culture procedures have been described in detail (Chen et al., [2009]). In brief, postnatal day 3 (p3) CBA/J pups were euthanized after antisepsis using 70% ethanol. Inner ears were extracted from surrounding tissue and immersed in cold Hank’s balanced salt solution. The lateral wall tissues (stria vascularis and spiral ligament) and the auditory nerve bundle were micro-dissected from the organ of Corti. The explants were placed onto a prepared culture dish containing a 15-μL polymerized drop of rat tail collagen in 1 mL of culture medium consisting of Basal Medium Eagle, 1% serum-free supplement (Invitrogen, Carlsbad, CA, USA), 1% bovine serum albumin, 5 mg/mL glucose, and 10 U/mL penicillin G. After 4 h of incubation (37°C, 5% CO2), an additional 1 mL of medium was added to submerge the explants.
The medium was then exchanged for new medium containing a final concentration of 4.5 μM GM with or without various concentrations of the HDAC inhibitors and incubated for 72 h. […]
Explants were fixed with 4% paraformaldehyde overnight at 4°C and permeabilized for 30 min with 3% Triton X-100 in phosphate-buffered saline (PBS) at room temperature (22–24°C). […] Cell populations were assessed on a Leitz Orthoplan upright microscope equipped for epifluorescence, using a 50× oil-immersion objective. […] Each successive 0.19-mm field was evaluated for the absence of OHCs beginning from the apex and moving down the organ of Corti to the base. The percentage of OHC loss was calculated.
After having established the safe concentration range for the HDAC inhibitors, we explored their efficacy as protective agents against GM-induced OHC loss. […] From the assessment of safe doses and the median effective (protective) doses (ED50) of the three HDAC inhibitors, we calculated the therapeutic index (TI = TD50/ED50) to be highest (safest) for belinostat and lowest for panobinostat (for detailed values see Table 2).

Compound | TI (TD50/ED50)
Cc1[nH]c2ccccc2c1CCNCc1ccc(/C=C/C(=O)NO)cc1 [panobinostat] | 3.9
O=C(/C=C/c1cccc(S(=O)(=O)Nc2ccccc2)c1)NO [belinostat] | 70
O=C(CCCCCCC(=O)Nc1ccccc1)NO [SAHA, vorinostat] | 9.2
